Results as given in PubChem BioAssay (NCATS).
This list was built around the results that the source calls inconclusive (neither active nor inactive); the mix of calls is not that of the screen. A potency beside an inconclusive call is a rough fit, not a confirmed value. Active and inactive are the calls of the source. The call rests on the fitted dose curve; in most records, active means well fitted cell-killing curve with a large enough effect; inconclusive means small, poorly fitted or top-dose-only effect; inactive means flat fitted curve, though single readings scatter.

Test: Identifying Small Molecule Inhibitors of Pancreatic Cancer Stem Cells (A278, Adherent) (AID 1259361);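 further: viability read after 48 h compound exposure; nearly all actives have a fitted effect of over 35% in size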
Details: viability (% of control): at 46.1 µM (top of the series) unless noted
Summary of the method: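 After a 4 h attachment period, compounds were pinned into wells and cultures held 48 h under standard incubator conditions. Viability was then measured as CellTiter-Glo luminescence following 10 min at room temperature.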

Structure (SMILES)	IC50 (viability decrease)
O=C1[C@H](Cc2ccc(O)cc2)N2C(=O)CCN(C(=O)NCc3ccccc3)[C@H]2CN1Cc1cccc2ccccc12	active: 1050 nM
Nc1ccccc1NC(=O)c1ccc(CNc2nccc(-c3cccnc3)n2)cc1	active: 1180 nM
CC(C)CC(=O)Nc1n[nH]c2c1CN(C(=O)C1CCN(C)CC1)C2(C)C	inconclusive: 590 nM [cytotoxic, full curve]
Cc1ccc(NC(=O)c2ccc(CN3CCN(C)CC3)cc2)cc1Nc1nc(-c2cccnc2)cs1	inconclusive: 16600 nM [cytotoxic, partial curve]
COc1cc(Nc2ncc3c(n2)-c2ccc(Cl)cc2C(c2c(F)cccc2OC)=NC3)ccc1C(=O)O	inconclusive: 14.8 nM [cytotoxic, full curve]
COc1ccc(-c2ccc3c(N4CCOC[C@H]4C)nc(N4CCOC[C@H]4C)nc3n2)cc1CO	inconclusive: 4.2 nM [cytotoxic, full curve]

2 of the compounds above, as a markdown table:

| Structure (SMILES) | IC50 (viability decrease) |
| --- | --- |
| O=C1[C@H](Cc2ccc(O)cc2)N2C(=O)CCN(C(=O)NCc3ccccc3)[C@H]2CN1Cc1cccc2ccccc12 | active: 1050 nM |
| Nc1ccccc1NC(=O)c1ccc(CNc2nccc(-c3cccnc3)n2)cc1 | active: 1180 nM |
